Construct, isoform or probe ends are uncertain for at least one entry. For part of these data: Protein sequences can lack the tags named with them.
Columns and labels:
Assay in all cases: protein microarray
Settings in all cases: 10-fold cold unmethylated competitor; 5mC at CpG (SssI, both strands); recombinant protein; protein details: GST (N-terminal); label: Cy5
[1] = target: HOXA5 (Homo sapiens) (UniProt P20719)
[2] = target: ZKSCAN5 (Homo sapiens) (UniProt Q9Y2L8)
[3] = target: ZNF114 (Homo sapiens) (UniProt Q8NC26)
[4] = target: E2F3 (Homo sapiens) (UniProt O00716)
[5] = target: ZNF416 (Homo sapiens) (UniProt Q9BWM5)
[6] = target: ZNF695 (Homo sapiens) (UniProt Q8IW36)
[7] = target: T1, SCAPER (Homo sapiens) (UniProt Q9BY12)
T1 sequence (looked up, limits assumed): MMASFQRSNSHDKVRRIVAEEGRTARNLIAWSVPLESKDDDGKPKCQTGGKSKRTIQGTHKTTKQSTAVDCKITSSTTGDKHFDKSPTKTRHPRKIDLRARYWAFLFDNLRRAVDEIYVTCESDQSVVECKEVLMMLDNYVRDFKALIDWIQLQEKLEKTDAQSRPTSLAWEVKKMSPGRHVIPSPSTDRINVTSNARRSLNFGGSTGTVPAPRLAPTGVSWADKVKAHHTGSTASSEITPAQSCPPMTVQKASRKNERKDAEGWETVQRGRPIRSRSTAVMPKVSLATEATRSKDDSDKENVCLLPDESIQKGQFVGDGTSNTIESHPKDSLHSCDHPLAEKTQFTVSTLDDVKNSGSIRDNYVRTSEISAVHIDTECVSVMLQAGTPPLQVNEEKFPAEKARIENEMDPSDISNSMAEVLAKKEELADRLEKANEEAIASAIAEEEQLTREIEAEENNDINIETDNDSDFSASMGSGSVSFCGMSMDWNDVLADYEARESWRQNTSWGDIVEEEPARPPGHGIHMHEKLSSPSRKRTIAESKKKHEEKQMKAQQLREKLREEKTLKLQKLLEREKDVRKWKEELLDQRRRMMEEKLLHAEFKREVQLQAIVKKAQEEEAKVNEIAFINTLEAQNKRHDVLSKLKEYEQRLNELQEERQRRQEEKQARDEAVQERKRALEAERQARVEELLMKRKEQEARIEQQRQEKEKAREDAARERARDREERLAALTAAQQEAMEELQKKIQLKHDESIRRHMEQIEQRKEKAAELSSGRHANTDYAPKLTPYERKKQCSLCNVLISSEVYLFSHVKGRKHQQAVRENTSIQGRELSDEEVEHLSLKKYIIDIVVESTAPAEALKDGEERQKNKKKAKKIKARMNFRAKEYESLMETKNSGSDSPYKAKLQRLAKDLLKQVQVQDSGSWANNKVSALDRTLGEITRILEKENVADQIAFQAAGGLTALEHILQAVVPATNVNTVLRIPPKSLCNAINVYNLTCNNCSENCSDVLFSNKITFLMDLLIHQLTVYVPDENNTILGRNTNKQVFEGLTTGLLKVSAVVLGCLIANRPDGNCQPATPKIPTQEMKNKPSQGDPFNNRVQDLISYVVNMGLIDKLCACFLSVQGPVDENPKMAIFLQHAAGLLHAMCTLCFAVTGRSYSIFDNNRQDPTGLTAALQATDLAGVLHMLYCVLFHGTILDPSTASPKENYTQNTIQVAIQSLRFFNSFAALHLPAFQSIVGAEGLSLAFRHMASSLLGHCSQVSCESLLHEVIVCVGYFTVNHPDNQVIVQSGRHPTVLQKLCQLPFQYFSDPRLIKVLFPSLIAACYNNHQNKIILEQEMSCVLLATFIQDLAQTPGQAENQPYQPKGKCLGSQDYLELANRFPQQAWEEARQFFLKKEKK

Sequences of proteins named here, by UniProt entry; tags and fusion partners are left off. A change or cut given only in a name is not applied to a line headed by its entry.
UniProt P20719: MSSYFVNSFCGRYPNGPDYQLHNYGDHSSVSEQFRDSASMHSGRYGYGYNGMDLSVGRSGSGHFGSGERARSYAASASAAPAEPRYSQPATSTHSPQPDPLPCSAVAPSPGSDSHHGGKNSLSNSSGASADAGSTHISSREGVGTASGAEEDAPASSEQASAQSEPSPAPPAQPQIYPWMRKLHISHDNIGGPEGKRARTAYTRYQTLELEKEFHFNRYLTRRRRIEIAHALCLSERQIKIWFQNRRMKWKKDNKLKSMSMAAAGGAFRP
UniProt Q9Y2L8: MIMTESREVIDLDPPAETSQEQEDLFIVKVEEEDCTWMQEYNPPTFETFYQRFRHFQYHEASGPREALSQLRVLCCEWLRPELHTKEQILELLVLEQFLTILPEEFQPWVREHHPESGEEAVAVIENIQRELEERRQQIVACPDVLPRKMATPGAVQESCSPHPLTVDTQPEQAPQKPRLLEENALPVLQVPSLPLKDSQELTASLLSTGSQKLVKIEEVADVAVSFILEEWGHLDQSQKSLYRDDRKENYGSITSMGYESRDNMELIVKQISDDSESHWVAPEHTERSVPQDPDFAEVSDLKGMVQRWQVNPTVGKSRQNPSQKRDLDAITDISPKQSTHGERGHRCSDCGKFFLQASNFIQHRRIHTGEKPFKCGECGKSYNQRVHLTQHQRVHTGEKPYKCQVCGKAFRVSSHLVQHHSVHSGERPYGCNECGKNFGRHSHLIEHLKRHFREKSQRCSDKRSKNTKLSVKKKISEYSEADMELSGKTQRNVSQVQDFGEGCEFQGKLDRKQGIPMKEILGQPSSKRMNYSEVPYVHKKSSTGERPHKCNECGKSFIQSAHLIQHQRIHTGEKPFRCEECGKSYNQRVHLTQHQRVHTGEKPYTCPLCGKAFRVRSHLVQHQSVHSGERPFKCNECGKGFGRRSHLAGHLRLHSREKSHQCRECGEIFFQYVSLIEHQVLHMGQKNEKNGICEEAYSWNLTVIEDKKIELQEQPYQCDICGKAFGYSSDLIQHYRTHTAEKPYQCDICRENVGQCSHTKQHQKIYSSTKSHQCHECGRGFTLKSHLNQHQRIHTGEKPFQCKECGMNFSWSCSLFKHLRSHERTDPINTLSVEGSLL
UniProt Q8NC26: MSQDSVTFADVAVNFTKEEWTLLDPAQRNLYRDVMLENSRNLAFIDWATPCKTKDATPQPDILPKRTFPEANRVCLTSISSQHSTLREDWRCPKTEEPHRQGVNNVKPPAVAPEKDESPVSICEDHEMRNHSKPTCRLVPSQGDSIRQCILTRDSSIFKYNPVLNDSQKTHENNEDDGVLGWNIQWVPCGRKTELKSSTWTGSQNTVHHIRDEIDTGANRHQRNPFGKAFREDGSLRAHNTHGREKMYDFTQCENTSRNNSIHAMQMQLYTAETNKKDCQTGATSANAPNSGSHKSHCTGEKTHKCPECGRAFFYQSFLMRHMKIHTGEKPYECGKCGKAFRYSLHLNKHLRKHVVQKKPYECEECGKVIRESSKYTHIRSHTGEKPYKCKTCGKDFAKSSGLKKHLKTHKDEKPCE
UniProt O00716: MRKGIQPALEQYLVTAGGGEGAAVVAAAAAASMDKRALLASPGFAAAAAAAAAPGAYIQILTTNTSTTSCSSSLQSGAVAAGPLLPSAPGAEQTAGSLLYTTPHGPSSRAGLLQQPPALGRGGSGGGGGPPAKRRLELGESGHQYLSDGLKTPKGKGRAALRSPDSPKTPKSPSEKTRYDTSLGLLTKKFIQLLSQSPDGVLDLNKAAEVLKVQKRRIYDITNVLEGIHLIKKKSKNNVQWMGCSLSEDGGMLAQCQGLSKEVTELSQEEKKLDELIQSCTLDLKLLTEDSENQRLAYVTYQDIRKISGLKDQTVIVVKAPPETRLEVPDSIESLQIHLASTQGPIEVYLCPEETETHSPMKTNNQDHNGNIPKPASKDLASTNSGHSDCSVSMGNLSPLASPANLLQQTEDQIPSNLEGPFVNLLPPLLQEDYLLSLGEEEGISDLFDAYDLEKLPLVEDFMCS
UniProt Q9BWM5: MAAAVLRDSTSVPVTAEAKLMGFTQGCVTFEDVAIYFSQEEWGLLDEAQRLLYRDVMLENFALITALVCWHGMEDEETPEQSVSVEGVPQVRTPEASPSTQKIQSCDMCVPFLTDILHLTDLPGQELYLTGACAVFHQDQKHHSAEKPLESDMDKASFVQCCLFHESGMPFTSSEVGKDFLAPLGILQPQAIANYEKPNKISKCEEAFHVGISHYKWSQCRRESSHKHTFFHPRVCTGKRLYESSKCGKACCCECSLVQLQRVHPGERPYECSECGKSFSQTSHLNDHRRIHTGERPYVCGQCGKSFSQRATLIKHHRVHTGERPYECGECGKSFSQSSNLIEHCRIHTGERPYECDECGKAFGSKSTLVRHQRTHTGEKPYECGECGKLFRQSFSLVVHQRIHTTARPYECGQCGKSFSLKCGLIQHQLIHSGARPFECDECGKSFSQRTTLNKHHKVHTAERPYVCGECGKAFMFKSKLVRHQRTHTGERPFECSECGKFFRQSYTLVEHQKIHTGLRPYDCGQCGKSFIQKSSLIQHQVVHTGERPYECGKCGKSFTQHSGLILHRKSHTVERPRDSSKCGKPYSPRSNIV
UniProt Q8IW36: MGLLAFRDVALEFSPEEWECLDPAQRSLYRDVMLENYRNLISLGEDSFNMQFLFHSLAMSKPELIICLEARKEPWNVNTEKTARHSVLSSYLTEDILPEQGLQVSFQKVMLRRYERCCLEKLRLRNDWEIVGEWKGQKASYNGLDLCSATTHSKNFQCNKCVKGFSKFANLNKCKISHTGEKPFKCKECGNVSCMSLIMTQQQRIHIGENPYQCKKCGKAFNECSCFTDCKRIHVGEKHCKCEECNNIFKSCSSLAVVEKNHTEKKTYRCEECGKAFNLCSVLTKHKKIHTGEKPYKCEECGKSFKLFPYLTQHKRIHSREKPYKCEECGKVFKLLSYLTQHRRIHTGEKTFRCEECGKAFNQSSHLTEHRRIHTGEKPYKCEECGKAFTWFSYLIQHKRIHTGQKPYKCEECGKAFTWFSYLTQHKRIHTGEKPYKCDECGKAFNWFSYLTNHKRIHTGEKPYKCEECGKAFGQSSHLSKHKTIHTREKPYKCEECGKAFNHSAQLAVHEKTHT
UniProt P43694: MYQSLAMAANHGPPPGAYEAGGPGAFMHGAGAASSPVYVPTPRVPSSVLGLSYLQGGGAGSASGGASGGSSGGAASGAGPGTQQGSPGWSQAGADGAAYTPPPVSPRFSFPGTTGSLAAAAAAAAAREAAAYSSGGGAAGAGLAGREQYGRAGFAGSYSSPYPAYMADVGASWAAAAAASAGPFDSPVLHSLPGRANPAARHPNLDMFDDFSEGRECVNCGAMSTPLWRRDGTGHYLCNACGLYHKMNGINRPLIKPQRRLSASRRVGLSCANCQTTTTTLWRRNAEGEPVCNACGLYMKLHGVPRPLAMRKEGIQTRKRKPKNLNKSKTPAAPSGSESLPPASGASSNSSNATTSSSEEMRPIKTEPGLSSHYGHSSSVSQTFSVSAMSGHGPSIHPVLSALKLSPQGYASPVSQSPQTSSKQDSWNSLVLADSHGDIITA
UniProt P37231: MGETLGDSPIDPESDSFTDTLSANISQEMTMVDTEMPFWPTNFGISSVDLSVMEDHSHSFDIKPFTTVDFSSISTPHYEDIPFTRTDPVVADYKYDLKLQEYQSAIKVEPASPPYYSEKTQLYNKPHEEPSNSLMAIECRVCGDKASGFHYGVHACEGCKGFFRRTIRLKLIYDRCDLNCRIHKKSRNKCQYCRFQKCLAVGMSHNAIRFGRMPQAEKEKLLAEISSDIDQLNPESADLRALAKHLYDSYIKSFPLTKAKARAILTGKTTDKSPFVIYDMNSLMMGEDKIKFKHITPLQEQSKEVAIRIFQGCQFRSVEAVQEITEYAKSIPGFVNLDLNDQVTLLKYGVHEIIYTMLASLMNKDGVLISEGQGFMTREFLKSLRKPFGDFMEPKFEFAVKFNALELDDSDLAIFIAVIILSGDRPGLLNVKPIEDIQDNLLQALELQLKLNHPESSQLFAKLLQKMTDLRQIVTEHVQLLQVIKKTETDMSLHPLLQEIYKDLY
UniProt P19793: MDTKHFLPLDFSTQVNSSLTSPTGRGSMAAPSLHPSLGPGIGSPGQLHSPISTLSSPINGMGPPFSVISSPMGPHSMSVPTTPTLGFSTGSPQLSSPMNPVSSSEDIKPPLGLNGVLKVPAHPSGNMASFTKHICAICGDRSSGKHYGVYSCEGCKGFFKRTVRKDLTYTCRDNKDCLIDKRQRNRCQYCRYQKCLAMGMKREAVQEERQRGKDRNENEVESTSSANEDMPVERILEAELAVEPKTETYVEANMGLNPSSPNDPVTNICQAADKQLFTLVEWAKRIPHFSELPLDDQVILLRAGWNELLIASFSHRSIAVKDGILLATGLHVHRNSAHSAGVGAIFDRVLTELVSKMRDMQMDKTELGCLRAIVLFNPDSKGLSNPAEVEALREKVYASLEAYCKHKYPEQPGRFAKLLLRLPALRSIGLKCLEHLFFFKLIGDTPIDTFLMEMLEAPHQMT
UniProt P05549: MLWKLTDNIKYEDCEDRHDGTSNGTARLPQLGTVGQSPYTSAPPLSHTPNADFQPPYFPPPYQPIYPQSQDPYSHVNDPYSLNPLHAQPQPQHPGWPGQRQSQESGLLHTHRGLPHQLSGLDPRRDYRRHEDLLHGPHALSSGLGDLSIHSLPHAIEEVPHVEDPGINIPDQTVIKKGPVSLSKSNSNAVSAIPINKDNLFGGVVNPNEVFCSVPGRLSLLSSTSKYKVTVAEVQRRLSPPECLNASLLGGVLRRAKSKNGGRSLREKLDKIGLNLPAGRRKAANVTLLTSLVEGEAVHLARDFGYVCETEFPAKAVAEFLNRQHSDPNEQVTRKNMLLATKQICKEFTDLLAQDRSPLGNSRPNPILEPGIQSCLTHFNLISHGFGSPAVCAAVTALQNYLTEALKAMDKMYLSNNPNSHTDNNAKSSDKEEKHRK

[8] = target: T2, BCL3 (Homo sapiens) (UniProt P20749)
T2 sequence (looked up, limits assumed): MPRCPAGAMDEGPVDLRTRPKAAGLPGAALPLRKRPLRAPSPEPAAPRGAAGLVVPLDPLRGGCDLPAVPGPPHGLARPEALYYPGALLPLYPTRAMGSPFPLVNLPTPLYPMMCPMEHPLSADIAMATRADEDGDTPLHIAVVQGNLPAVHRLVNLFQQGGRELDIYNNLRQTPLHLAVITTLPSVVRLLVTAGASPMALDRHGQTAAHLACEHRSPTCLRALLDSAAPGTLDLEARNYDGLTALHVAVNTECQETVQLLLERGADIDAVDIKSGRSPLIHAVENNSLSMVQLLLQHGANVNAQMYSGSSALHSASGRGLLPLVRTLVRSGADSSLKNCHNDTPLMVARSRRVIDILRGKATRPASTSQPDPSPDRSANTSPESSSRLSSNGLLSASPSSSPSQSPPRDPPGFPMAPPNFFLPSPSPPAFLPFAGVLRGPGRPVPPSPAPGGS

[9] = target: GATA4 (Homo sapiens) (UniProt P43694)
[10] = target: PPARG (Homo sapiens) (UniProt P37231)
[11] = target: T3, RNF138 (Homo sapiens) (UniProt Q8WVD3)
T3 sequence (looked up, limits assumed): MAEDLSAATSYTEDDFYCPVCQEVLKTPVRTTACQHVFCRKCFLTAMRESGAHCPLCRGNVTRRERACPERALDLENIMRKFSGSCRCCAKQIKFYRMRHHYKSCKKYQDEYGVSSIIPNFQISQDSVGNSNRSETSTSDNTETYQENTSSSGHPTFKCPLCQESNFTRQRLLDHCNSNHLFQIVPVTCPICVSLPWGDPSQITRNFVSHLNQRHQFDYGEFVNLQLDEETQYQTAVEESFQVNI

[12] = target: RXRA (Homo sapiens) (UniProt P19793)
[13] = target: T4, SMAD4 (Homo sapiens) (UniProt Q13485)
T4 sequence (looked up, limits assumed): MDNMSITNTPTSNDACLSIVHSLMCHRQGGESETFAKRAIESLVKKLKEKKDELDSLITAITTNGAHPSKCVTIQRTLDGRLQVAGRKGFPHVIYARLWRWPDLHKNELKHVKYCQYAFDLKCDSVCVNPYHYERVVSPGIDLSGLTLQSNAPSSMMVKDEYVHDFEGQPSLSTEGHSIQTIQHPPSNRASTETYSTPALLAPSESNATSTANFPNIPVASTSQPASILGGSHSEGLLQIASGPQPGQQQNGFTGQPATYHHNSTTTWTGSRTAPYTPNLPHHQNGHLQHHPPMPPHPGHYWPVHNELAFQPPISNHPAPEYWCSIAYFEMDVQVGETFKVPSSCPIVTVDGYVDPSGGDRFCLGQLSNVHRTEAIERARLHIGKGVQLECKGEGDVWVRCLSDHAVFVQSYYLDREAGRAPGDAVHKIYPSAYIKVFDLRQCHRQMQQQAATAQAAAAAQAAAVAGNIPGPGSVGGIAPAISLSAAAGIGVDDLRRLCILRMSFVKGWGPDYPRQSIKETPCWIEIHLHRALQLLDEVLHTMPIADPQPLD

[14] = target: TFAP2A (Homo sapiens) (UniProt P05549)
[15] = target: T5, ZCCHC7 (Homo sapiens) (UniProt Q8N3Z6)
T5 sequence (looked up, limits assumed): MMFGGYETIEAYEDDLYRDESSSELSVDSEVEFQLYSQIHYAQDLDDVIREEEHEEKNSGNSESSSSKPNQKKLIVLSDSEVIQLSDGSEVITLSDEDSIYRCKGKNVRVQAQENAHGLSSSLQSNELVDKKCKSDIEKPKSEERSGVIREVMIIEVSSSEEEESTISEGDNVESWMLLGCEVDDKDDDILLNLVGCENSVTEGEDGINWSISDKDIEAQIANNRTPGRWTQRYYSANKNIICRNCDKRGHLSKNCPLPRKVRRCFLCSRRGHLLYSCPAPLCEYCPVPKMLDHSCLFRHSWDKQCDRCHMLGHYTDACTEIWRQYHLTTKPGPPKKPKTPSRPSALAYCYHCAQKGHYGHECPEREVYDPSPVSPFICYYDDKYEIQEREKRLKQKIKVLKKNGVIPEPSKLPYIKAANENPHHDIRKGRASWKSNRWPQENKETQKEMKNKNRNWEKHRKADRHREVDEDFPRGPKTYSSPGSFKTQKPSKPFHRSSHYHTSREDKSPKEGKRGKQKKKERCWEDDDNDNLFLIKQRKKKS

[16] = target: T6, NRF1 (Homo sapiens) (UniProt Q16656)
T6 sequence (looked up, limits assumed): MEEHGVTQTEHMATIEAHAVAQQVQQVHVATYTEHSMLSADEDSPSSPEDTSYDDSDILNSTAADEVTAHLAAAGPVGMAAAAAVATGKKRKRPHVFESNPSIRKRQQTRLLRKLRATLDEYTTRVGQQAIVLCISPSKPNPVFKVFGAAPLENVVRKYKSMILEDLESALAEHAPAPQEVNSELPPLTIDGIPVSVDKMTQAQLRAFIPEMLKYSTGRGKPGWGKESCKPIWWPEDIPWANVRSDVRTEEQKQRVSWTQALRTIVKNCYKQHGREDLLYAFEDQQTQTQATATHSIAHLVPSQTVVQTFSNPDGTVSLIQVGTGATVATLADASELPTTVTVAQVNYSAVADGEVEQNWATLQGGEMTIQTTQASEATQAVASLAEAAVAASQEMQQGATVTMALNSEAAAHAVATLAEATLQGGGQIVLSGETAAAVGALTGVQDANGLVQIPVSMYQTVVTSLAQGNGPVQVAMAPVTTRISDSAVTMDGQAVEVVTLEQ

Measured: binding result

TCTCACGCAACCCTCTCACGCAACCCTATAGTGAGTGCTATTA (double strand) [M57]
binds: [1] | [2] | [3]

GAACGCTAGAAAGAACGCTAGCCCTATAGTGAGTGCTATTA (double strand) [M257]
binds: [4] | [2] | [3] | [5] | [6]

GCTCGAAAGAAAGCTCGAAAGCCCTATAGTGAGTGCTATTA (double strand) [M270]
binds: [2] | [3] | [5] | [6]

CCGCCTCTTCCGAAACCGCCTCTTCCGCCCTATAGTGAGTGCTATTA (double strand) [M245]
binds: [4] | [7] | [2] | [5]

CCGCTTCTTTCCGCTTCCCCTATAGTGAGTGCTATTA (double strand) [M320]
not listed: [2] | [15] | [16]
binds: all other assays above

CCCGGAGAAACCCGGAGCCCTATAGTGAGTGCTATTA (double strand) [M302]
not listed: [2] | [16]
binds: all other assays above

CCCGTGACCAAACCCGTGACCCCCTATAGTGAGTGCTATTA (double strand) [M32]
not listed: [2] | [8]
binds: all other assays above

AGCGAGTATCCCAGCGAGTATCCCTATAGTGAGTGCTATTA (double strand) [M273]
binds: [4] | [9] | [2] | [3] | [5] | [6]

From PMC3762332
